Laboratory results as given in PubChem BioAssay AID720504 (National Center for Advancing Translational Sciences (NCATS), 2013).
The campaign covered roughly 360,000 compounds. About 10,000 (2.8%) were called active. Inconclusive results, whose numbers are uncertain, are shown with a selection of clear calls. Calls follow the shape of the dose curve; as a rule, active = well fitted inhibition curve with a large enough effect; inconclusive = small, poorly fitted or top-dose-only effect; inactive = flat fitted curve, though single readings scatter. A potency beside an inconclusive call is a rough fit, not a confirmed value.

Protein sequences, listed by entry. Tags and fused reporters are not part of them.
UniProt P53350, whole entry, looked up: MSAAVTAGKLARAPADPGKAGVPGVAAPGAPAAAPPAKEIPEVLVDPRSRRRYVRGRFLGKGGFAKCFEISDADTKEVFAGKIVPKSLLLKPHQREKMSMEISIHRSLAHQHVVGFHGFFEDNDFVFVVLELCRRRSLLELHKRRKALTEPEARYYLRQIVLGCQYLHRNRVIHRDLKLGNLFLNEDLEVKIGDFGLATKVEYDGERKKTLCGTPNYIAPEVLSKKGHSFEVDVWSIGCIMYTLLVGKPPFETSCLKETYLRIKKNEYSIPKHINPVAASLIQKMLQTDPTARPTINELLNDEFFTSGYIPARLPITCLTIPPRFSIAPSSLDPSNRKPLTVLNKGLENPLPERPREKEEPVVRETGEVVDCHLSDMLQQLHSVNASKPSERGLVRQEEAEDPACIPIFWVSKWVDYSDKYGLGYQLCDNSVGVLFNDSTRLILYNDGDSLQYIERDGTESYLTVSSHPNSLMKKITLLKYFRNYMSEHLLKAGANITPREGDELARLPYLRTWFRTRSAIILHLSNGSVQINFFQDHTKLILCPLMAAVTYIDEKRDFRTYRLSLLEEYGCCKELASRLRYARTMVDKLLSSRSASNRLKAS

These compounds were tested against Serine/threonine-protein kinase PLK1 (Homo sapiens) (UniProt P53350) (assay: qHTS for Inhibitors of PLK1-PDB (polo-like kinase 1 - polo-box domain): Primary Screen). Settings: Plk1 PBD binding of FITC phosphopeptide, fluorescence polarization.
% is scaled to controls: 0 for no effect and ±100 for the full control effect; potency is read from the fitted curve at half-maximal effect.
Also: nearly all actives have a fitted effect of over 65% in size.
For max response, negative = inhibition in this document: series mostly up to about 57 µM.

Q: For `O=C(CSc1nc2ccccc2s1)NC1CCS(=O)(=O)C1` (stereo not drawn), which Potency is on record?
A: inconclusive: 26.7 µM [inhibitor, partial curve]

Q: With `Cc1ccc(C2C(C#N)=C(N)Oc3n[nH]c(C)c32)cc1` (stereo not drawn) as the compound, how does the max response, negative = inhibition read?
A: inconclusive: -30.4% [inhibitor]

Q: `Cc1ccc(S(=O)(=O)c2ccc(NN)cc2)cc1` was tested. Which Potency did it give?
A: inconclusive: 26.7 µM [inhibitor, partial curve]

Q: How did the Potency turn out when `O=C(NCc1cccc(CNC(=O)C(=O)NCc2ccco2)c1)C(=O)NCc1ccco1` was run?
A: inconclusive: 29.9 µM [inhibitor, partial curve]

Q: `Cc1ccc2ncnc(Nc3cccc(C(=O)O)c3)c2c1` was tested. Which Potency did it give?
A: inconclusive: 37.7 µM [inhibitor, single point]

Q: `Cc1ccc(S(=O)(=O)N2CCCN(C(=O)OC(C)(C)C)CC2)cc1` was tested. Which max response, negative = inhibition did it give?
A: inactive: -0.0954%

Q: Which Potency does the source give for `COc1cc(/C=N/NC(=O)C(Cc2c[nH]c3ccccc23)NC(=O)OCc2ccccc2)cc([N+](=O)[O-])c1O` (stereo not drawn) here?
A: inconclusive: 26.7 µM [inhibitor, single point]

Q: Which max response, negative = inhibition does the source give for `CC(Sc1nncs1)C(=O)Nc1ccc(Cl)cn1` (stereo not drawn) here?
A: inconclusive: -31.9% [inhibitor]

Q: `Cc1ccc(NC(=O)CCc2nnc3ccc(NCc4ccco4)nn23)nc1` was tested. Which Potency did it give?
A: inconclusive: 23.8 µM [inhibitor, partial curve]

Q: How did the max response, negative = inhibition turn out when `Cc1csc(=O)n1CC(=O)Nc1ccc(C(C)C)cc1` was run?
A: inactive: -2.58%

Q: For `Nc1cccc2c1C(=O)N(C(=O)/C=C/c1cccc(Br)c1)C2=O`, which Potency is on record?
A: inconclusive: 6.7 µM [inhibitor, partial curve]

Q: Which Potency does the source give for `COc1ccc(CN(C)Cc2c(O)ccc3ccccc23)cc1` here?
A: inconclusive: 26.7 µM [inhibitor, partial curve]

Q: How did the max response, negative = inhibition turn out when `CC(C)C1NC(C(=O)O)Cc2c1[nH]c1ccccc21` (stereo not drawn) was run?
A: inactive: -13.6%

Q: With `Cc1cc(C)cc(NC(=O)c2ccccc2NC(=O)CCC(=O)O)c1` as the compound, how does the max response, negative = inhibition read?
A: inactive: -6.44%

Q: `COc1ccc(Cn2c(O)c(C=Nc3ccccc3C(=O)O)c3ccccc3c2=O)cc1` was tested. Which Potency did it give?
A: inconclusive: 26.7 µM [inhibitor, single point]

Q: Which max response, negative = inhibition does the source give for `COc1nsnc1NS(=O)(=O)c1ccc(NC(=S)NC(=O)c2cccnc2)cc1` here?
A: inconclusive: -33.4% [inhibitor]

Q: Which Potency does the source give for `O=C(ONc1ccc(N=NC(=O)c2ccccc2O)cc1)c1ccccc1` here?
A: inconclusive: 26.7 µM [inhibitor, single point]

Q: How did the Potency turn out when `O=S(=O)(c1cccc(-c2cn3cccnc3n2)c1)N1CCOCC1` was run?
A: inconclusive: 26.7 µM [inhibitor, single point]

Q: `COc1cc([N+](=O)[O-])ccc1NC(=S)Nc1cccc(C(=O)O)c1` was tested. Which Potency did it give?
A: inconclusive: 11.9 µM [inhibitor, partial curve]

Q: How did the max response, negative = inhibition turn out when `CCN(CC)c1ccc(/C=N/NC(=O)CNC(=O)C2COc3ccccc3O2)c(O)c1` (stereo not drawn) was run?
A: inactive: 2.71%

Q: `COC(=O)c1ccccc1OCCOCCOc1cccc2cccnc12` was tested. Which Potency did it give?
A: inconclusive: 26.7 µM [inhibitor, partial curve]

Q: `CCc1ccccc1NC1c2ccccc2C(=O)N1Cc1ccco1` (stereo not drawn) was tested. Which max response, negative = inhibition did it give?
A: inactive: 2.44%

Q: Which Potency does the source give for `O=C(O)CSc1nc2sc3c(c2c(=O)n1-c1ccccc1)CCC3` here?
A: inconclusive: 29.9 µM [inhibitor, partial curve]

Q: Which Potency does the source give for `Cn1c(CNC(=O)c2ccccc2F)nnc1SCC(=O)NCc1ccccc1` here?
A: inconclusive: 29.9 µM [inhibitor, partial curve]

Q: `O=C1CCCN1CCCNc1ccc2nnc(CCC(=O)N3CCN(c4ccc(F)cc4)CC3)n2n1` was tested. Which Potency did it give?
A: active: 26.7 µM

Q: Which Potency does the source give for `O=C(O)CCCCCN=Cc1c(O)c2ccccc2oc1=O` here?
A: inconclusive: 15 µM [inhibitor, partial curve]

Q: For `Cc1cc(Cl)ccc1OCC(=O)Nc1ccccc1N1CCOCC1`, which max response, negative = inhibition is on record?
A: inactive: -1.23%

Q: `Cc1ccc2[nH]cc(CCNC(=O)c3ccc([N+](=O)[O-])cc3)c2c1` was tested. Which Potency did it give?
A: inconclusive: 29.9 µM [inhibitor, single point]

Q: For `O=C1OC2(CCCC2)OC(=O)C1=Cc1c[nH]c2ccccc12`, which Potency is on record?
A: inconclusive: 26.7 µM [inhibitor, partial curve, poor fit]

Q: `COc1ccc(N/N=C(\C#N)C(=N)N2CCCCC2)cc1` was tested. Which max response, negative = inhibition did it give?
A: inactive: 5.47%

Q: With `COCCn1c(-c2ccc(OC)cc2)cnc1SCC(=O)Nc1ccc(OC)cc1OC` as the compound, how does the Potency read?
A: inconclusive: 37.7 µM [inhibitor, partial curve]

Q: How did the max response, negative = inhibition turn out when `CN(N=Cc1cccc2cccnc12)c1ccc([N+](=O)[O-])cc1[N+](=O)[O-]` was run?
A: inactive: -15%

Q: For `COc1ccc(-n2c(C)nc3cc(C(=O)O)ccc32)cc1`, which max response, negative = inhibition is on record?
A: inactive: -2.15%

Q: Which max response, negative = inhibition does the source give for `Cc1ccc(N(Cc2cc3cc(C)ccc3[nH]c2=O)S(=O)(=O)c2ccccc2)cc1` here?
A: inactive: -7.27%

Q: With `CCn1c(C)nc2cc(S(=O)(=O)N3CCCC3)ccc21` as the compound, how does the Potency read?
A: inconclusive: 26.7 µM [inhibitor, single point]

Q: With `O=C(COC(=O)CCc1c[nH]c2ccccc12)Nc1ccccc1C(F)(F)F` as the compound, how does the max response, negative = inhibition read?
A: inactive: -4.9%

Q: With `CC(C)C(C)(C#N)NC(=O)CSc1nnc(-c2ccncc2)n1Cc1ccccc1` (stereo not drawn) as the compound, how does the Potency read?
A: active: 21.2 µM

Q: For `Cc1cc(C)n(-c2nc3c(c(=O)[nH]c(=O)n3C)n2Cc2ccccc2)n1`, which max response, negative = inhibition is on record?
A: inactive: -4.66%

Q: With `COc1ccc2nc(-c3ccco3)c(-c3ccco3)nc2c1` as the compound, how does the Potency read?
A: inconclusive: 21.2 µM [inhibitor, partial curve]

Q: For `COc1ccc(NC(=O)C2=C(C)NC(=S)NC2c2ccc(O)c(OC)c2)cc1` (stereo not drawn), which Potency is on record?
A: inconclusive: 26.7 µM [inhibitor, single point]

Q: `COc1ccccc1/C=N/NC(=O)c1ccc(-c2ccccc2)cc1` was tested. Which Potency did it give?
A: active: 29.9 µM

Q: With `CN1c2ccc(C=O)c3c(C=O)ccc(c23)N(C)C1(C)C` as the compound, how does the Potency read?
A: inconclusive: 26.7 µM [inhibitor, partial curve]

Q: How did the Potency turn out when `CCOc1ccc(NC(=O)[C@H](C)NC(=O)C2CC(=O)N(c3ccc(OC)cc3)C2)cc1` (stereo partly drawn) was run?
A: inconclusive: 8.44 µM [inhibitor, single point]

Q: Which max response, negative = inhibition does the source give for `O=C(NCCc1ccccc1)c1c[nH]c2ccccc2c1=O` here?
A: inactive: -3.69%

Q: Which Potency does the source give for `Cn1c(C(=O)N2COCC2(C)C)cc2c(=O)n3ccccc3nc21` here?
A: inconclusive: 18.9 µM [inhibitor, single point]

Q: Which Potency does the source give for `CCCC1=NN2C(=N)/C(=C\c3cc(C)n(Cc4ccccc4)c3C)C(=O)N=C2S1` here?
A: inconclusive: 21.2 µM [inhibitor, single point]

Q: How did the Potency turn out when `O=[N+]([O-])c1ccc(/C=N/n2c(-c3ccccc3)n[nH]c2=S)cc1` was run?
A: inconclusive: 7.52 µM [inhibitor, partial curve]

Q: With `O=C(O)c1ccc(-c2nc3scc(-c4ccccc4)c3c(=O)[nH]2)cc1` as the compound, how does the Potency read?
A: inconclusive: 26.7 µM [inhibitor, partial curve]

Q: Which Potency does the source give for `CSCC(=O)N1CCCC(CNC(=O)c2ccc(-c3ccccc3)cc2)C1` (stereo not drawn) here?
A: inconclusive: 37.7 µM [inhibitor, single point]

Q: Which Potency does the source give for `COc1ccccc1NC(=O)/C(C#N)=C/c1ccncc1` here?
A: inconclusive: 26.7 µM [inhibitor, single point]

Q: With `Cn1c(=O)c(C(=O)Nc2ccccn2)c(O)c2ccccc21` as the compound, how does the Potency read?
A: inconclusive: 23.8 µM [inhibitor, single point]

Q: For `CCN(CC)CCN1C(=O)C(=O)/C(=C(/O)c2ccc(F)cc2)C1c1cccnc1` (stereo not drawn), which Potency is on record?
A: inconclusive: 23.8 µM [inhibitor, single point]

Q: With `N=c1scc(-c2ccccc2)n1/N=C/c1ccco1` as the compound, how does the Potency read?
A: inconclusive: 26.7 µM [inhibitor, single point]

Q: `CC(=O)OCCn1c2nc(=O)[nH]c(=O)c-2nc2cc(C)c(C)cc21` was tested. Which Potency did it give?
A: active: 0.844 µM

Q: For `Cc1ccccc1N1C(=S)NC2c3ccccc3OC1(C)C2C(=O)N(C)C` (stereo not drawn), which Potency is on record?
A: inconclusive: 29.9 µM [inhibitor, single point]

Q: How did the Potency turn out when `Cc1cccc(N=Cc2cc(Br)cc(Cl)c2O)c1` was run?
A: inconclusive: 29.9 µM [inhibitor, single point]

Q: For `Cc1ccsc1C=Nc1ccc(O)cc1`, which Potency is on record?
A: inconclusive: 37.7 µM [inhibitor, single point]

Q: Which Potency does the source give for `CCc1ccc(C(=O)NNc2ccc(F)cc2F)cc1` here?
A: inconclusive: 33.6 µM [inhibitor, single point]

Q: Which Potency does the source give for `CCc1ccc(OCCOCC(O)CNC(C)(C)C)cc1` (stereo not drawn) here?
A: inconclusive: 29.9 µM [inhibitor, partial curve]

Q: With `Cc1ccc(NS(=O)(=O)c2ccc(N/N=C/c3ccncc3)c([N+](=O)[O-])c2)c(C)c1` as the compound, how does the max response, negative = inhibition read?
A: inactive: -13%

Q: For `CCOc1ccc2[nH]c(=O)c(C(c3nnnn3Cc3ccco3)N3CCCC(C)C3)cc2c1` (stereo not drawn), which Potency is on record?
A: inconclusive: 23.8 µM [inhibitor, single point]

Q: How did the Potency turn out when `COc1cccc(C(=S)N2CCOCC2)c1OS(=O)(=O)c1ccc(Cl)cc1` was run?
A: inconclusive: 21.2 µM [inhibitor, single point]

Q: Which Potency does the source give for `COc1ccc(NS(=O)(=O)c2ccc(N3CCOCC3)c(NC(=O)c3ccco3)c2)cc1` here?
A: inconclusive: 26.7 µM [inhibitor, single point]

Q: `O=C(COC(=O)C1CC2C=CC1C2)NCc1ccco1` (stereo not drawn) was tested. Which Potency did it give?
A: inconclusive: 26.7 µM [inhibitor, single point]

Q: For `COc1ccccc1Nc1nc(N)nc(CN2CCC(Cc3ccccc3)CC2)n1`, which max response, negative = inhibition is on record?
A: inactive: -0.73%

Q: How did the Potency turn out when `CS(=O)(=O)c1ccc(S(=O)CC(=O)Oc2ccc(Cl)cc2)c([N+](=O)[O-])c1` (stereo not drawn) was run?
A: active: 2.99 µM

Q: For `Cc1ccccc1N/C(=C(/C(Cl)=C(Cl)Cl)[N+](=O)[O-])n1nnc2ccccc21`, which Potency is on record?
A: inconclusive: 26.7 µM [inhibitor, single point]

Q: `CCCCNC(=O)CSc1nc2cc3c(cc2c(=O)n1CCCC(=O)NCCc1ccc(OC)c(OC)c1)OCO3` was tested. Which max response, negative = inhibition did it give?
A: inactive: -5.71%
